For at least one entry, the source does not settle the construct or the ends of the probe. At least one verdict rests on a figure or table, not on a statement of the authors. For part of these data: Where a protein sequence is shown, tags need not be part of it.
Experiments:
Assay in all cases: EMSA
[1] = test system: GST-ABI5 + BBX31 (miP1a); settings: supershift vs ABI5 alone
[2] = target: T1, GST-ABI5 (Arabidopsis thaliana) (UniProt Q9SJN0); settings: residues 1-442
T1 sequence (looked up): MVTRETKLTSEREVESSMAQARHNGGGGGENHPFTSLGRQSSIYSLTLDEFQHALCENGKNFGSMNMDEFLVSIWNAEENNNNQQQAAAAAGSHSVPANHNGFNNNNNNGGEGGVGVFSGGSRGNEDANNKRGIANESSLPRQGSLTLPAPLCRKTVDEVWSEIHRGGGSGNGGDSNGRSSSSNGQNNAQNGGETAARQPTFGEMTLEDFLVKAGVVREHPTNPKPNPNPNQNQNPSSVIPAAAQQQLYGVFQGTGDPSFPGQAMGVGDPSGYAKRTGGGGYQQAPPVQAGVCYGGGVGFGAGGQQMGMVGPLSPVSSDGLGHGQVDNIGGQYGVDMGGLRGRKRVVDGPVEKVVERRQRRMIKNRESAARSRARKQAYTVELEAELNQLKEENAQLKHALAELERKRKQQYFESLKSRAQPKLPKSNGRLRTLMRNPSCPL

[3] = test system: GST-ABI5 + BBX30 (miP1b); settings: supershift vs ABI5 alone

Measured: binding result

AATAAAGTCAGACACGTGGCATGTCACCAA (double strand) [EM6 promoter probe]
binds: all assays above

GCAAGAAACAGAAGAGAGACACGTGCAGGACACGTGTCGTCCGCAGCCGAACGGA (double strand) [ABI5 promoter probe]
binds: all assays above

Reference: publication doi:10.1101/2022.06.21.497044 (bioRxiv, 2022)
